Reference: PubChem BioAssay AID504444 (National Center for Advancing Translational Sciences (NCATS), 2011)
Hit rate of the full screen: of about 360,000 compounds, about 7,500 (2.1%) were called active. Inconclusive means that the source gave no clear call. Such entries were picked first, then a sample of the others. Calls follow the shape of the dose curve; as a rule, active = well fitted inhibition curve with a large enough effect; inconclusive = small, poorly fitted or top-dose-only effect, or effect the other way; inactive = flat fitted curve, though single readings scatter. A potency beside an inconclusive call is a rough fit, not a confirmed value.

test: Nrf2 qHTS screen for inhibitors; details: A549 ARE-Fluc reporter, luciferase luminescence, 18-24 h; series mostly up to 46 µM; also: nearly all actives have a fitted effect of over 60% in size
Method in brief: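 A549 ARE_Fluc cells (5000/well, 5% FBS OPTI-MEM) pre-incubated 2 h, then treated with compounds 18-24 h at 37C/5% CO2 in concentration-response. CellTiter-Fluor viability read first; BugLite luciferase luminescence after 15 min at room temperature gives Nrf2 activity.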
Potency is read from the fitted curve at half-maximal effect.

SMILES | Potency
COc1cc2ncnc(NCc3ccc(F)cc3)c2cc1OC | inconclusive: 29.1 µM [falling, single point]
O=C(Nc1cc(Sc2nc3ccccc3s2)cc([N+](=O)[O-])c1)c1ccccc1 | inconclusive: 18.4 µM [falling, single point]
Cc1c(C(=O)NCc2ccc3c(c2)OCO3)oc2ccc(S(=O)(=O)N3CCCC3)cc12 | inconclusive: 0.731 µM [falling, full curve, poor fit]
CC1=CC(C)(C)Nc2ccc(OC(=O)CN3C(=O)c4ccccc4C3=O)cc21 | inconclusive: 10.3 µM [falling, partial curve, poor fit]
CSc1ccc(-c2nc(CN3CCCCC3c3cccnc3)c(C)o2)cc1 (stereo not given) | inconclusive: 29.1 µM [activator, single point]
Cc1cc(C)c(S(C)(=O)=O)c(Oc2ccc(C(C)(C)C)cc2)n1 | inconclusive: 9.2 µM [falling, partial curve, poor fit]
CCCn1c(CN2CCN(C(=O)c3ccco3)CC2)nc2cc(S(=O)(=O)N(C)C)ccc21 | inconclusive: 20.6 µM [falling, single point]
Cc1c(N(C(=O)Nc2ccccc2)C2=NCC(C)S2)c(=O)n(-c2ccccc2)n1C (stereo not given) | inconclusive: 29.1 µM [activator, single point]
COc1ccc(C2C(C(=O)c3cccs3)=C(O)C(=O)N2CCN2CCOCC2)c(OC)c1 (stereo not given) | inactive
O=C(Nc1ccccc1)c1ccc(F)cc1F | inconclusive: 20.6 µM [activator, single point]
COc1ccc(CCc2ccnc3ccccc23)cc1 | inconclusive: 32.6 µM [falling, partial curve, poor fit]
CS(=O)(=O)N1CCc2cc(C(=O)Nc3cccc(F)c3)ccc21 | inconclusive: 5.17 µM [activator, partial curve]
COc1ccc(S(=O)(=O)n2nc(OC(=O)c3ccccc3Br)cc2N)cc1 | inconclusive: 7.31 µM [falling, partial curve]
Cc1ccc2[nH]c(=O)c(CN(Cc3ccco3)S(=O)(=O)c3c(C)ccc4nsnc34)cc2c1 | inconclusive: 25.9 µM [falling, single point]
O=C(NCC1CCCO1)c1cc2c(s1)CCCC2 (stereo not given) | inconclusive: 10.3 µM [activator, partial curve]
Cc1nn(C)c(C)c1CN(Cc1nc(CCC(C)C)no1)C(C)C | active: 1.3 µM
O=C(NCC1CCCO1)C(c1ccncc1)N(Cc1cccs1)C(=O)Cn1nnc(-c2ccc(F)cc2)n1 (stereo not given) | inconclusive: 16.4 µM [falling, partial curve, poor fit]
Cc1cc(NC(=O)CSc2nnc(-c3ccoc3C)o2)no1 | inconclusive: 0.231 µM [falling, full curve, poor fit]
Cn1ccnc1SCC(=O)c1ccc(O)cc1 | inconclusive: 29.1 µM [activator, single point]
CCC(=O)NC(c1ccc([N+](=O)[O-])cc1)c1c(O)ccc2ccccc12 (stereo not given) | active: 16.4 µM

SMILES | Potency
Cc1ccc(C(=O)Cn2nnc3ccccc32)cc1 | inconclusive: 6.51 µM [activator, full curve]
Cc1ccc(CNC(=O)C(=O)NCC(c2cccnc2)N2CCN(c3ccccc3F)CC2)cc1 (stereo not given) | inconclusive: 29.1 µM [falling, single point]
Cc1ccsc1CN(C(=O)c1oc2ccccc2c1C)C1CCS(=O)(=O)C1 (stereo not given) | inconclusive: 29.1 µM [falling, single point]
Clc1nn2cnnc2c2ccccc12 | inconclusive: 1.84 µM [falling, partial curve, poor fit]
O=C(COc1ccc2ccccc2c1)NC1=NCCS1 | inconclusive: 10.3 µM [activator, partial curve]
Cc1oc2ncn(C)c(=O)c2c1C(=O)NCCCN(Cc1ccccc1)C(C)C | inconclusive: 23.1 µM [activator, partial curve, poor fit]
CCOC(=O)N1CCN(C(=O)c2ccc(Oc3ccc([N+](=O)[O-])cc3)cc2)CC1 | active: 25.9 µM
CCc1ccc(C2NC(=O)c3[nH]nc(-c4cccc(OC)c4)c32)cc1 (stereo not given) | active: 7.31 µM
C(=N\Nc1nc2ccccc2[nH]1)/c1cccs1 | inconclusive: 29.1 µM [activator, single point]
O=C(Nc1cccs1)Nc1c(F)c(F)c(F)c(F)c1F | inconclusive: 29.1 µM [falling, single point]
Cc1ccc(CN(Cc2ccco2)C(=O)c2oc3ccc(C)cc3c2C)cc1 | inconclusive: 18.4 µM [falling, single point]
Cc1cc(C)c(Nc2ncccc2C(=O)O)c(C)c1 | inconclusive: 4.61 µM [activator, partial curve, poor fit]
CCC(C)(C)NC(=O)CN(C(=O)CNS(=O)(=O)c1ccc(F)cc1)c1ccc2c(c1)OCCO2 | inconclusive: 32.6 µM [falling, partial curve, poor fit]
CCOC(=O)c1ccc(-c2ccc(/C=C(\C#N)C(=O)Nc3ccc(C)cc3OC)o2)cc1 | inconclusive: 4.61 µM [falling, single point]
Cc1c(CC(=O)N[C@H](C(=O)O)C(C)C)c(=O)oc2cc3c(cc12)CCC(C)(C)O3 | inconclusive: 7.31 µM [activator, partial curve]
O=[N+]([O-])c1ccc(CN2CCSCC2)cc1 | inconclusive: 4.11 µM [falling, full curve, poor fit]
O=C(c1ccc(S(=O)(=O)Nc2cccc(C(F)(F)F)c2)cc1)N1CCOCC1 | inconclusive: 20.6 µM [falling, partial curve]
O=C(CC1CS(=O)(=O)CC1CC(=O)Nc1ccc2c(c1)OCCO2)Nc1ccc2c(c1)OCCO2 (stereo not given) | inconclusive: 8.2 µM [activator, partial curve]
N#CC1=C(N)C2=CCCC[C@H]2[C@H](c2ccccc2)C1(C#N)C#N | inactive
Cc1ccc(C(=O)N(CC(=O)NC2CCCCC2)c2ccccc2C)s1 | inconclusive: 18.4 µM [falling, partial curve]
